Consider 34 targets from the supplement of paper PMC10849652.

Protein sequences, listed by entry. Tags and fused reporters are not part of them. Lines headed by an entry give the natural chain unless they say otherwise; changes in a name come on top.
UniProt Q96RQ1: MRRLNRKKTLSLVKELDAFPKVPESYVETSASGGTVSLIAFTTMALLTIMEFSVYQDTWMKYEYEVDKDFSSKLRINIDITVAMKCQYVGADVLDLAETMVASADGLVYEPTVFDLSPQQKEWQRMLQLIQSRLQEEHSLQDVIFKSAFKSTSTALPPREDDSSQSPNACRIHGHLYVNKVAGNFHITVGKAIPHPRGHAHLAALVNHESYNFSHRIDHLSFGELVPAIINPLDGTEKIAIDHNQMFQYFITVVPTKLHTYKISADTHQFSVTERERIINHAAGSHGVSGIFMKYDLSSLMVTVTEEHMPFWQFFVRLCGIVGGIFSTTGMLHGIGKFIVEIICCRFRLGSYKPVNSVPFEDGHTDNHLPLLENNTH
UniProt Q13144, whole entry, looked up: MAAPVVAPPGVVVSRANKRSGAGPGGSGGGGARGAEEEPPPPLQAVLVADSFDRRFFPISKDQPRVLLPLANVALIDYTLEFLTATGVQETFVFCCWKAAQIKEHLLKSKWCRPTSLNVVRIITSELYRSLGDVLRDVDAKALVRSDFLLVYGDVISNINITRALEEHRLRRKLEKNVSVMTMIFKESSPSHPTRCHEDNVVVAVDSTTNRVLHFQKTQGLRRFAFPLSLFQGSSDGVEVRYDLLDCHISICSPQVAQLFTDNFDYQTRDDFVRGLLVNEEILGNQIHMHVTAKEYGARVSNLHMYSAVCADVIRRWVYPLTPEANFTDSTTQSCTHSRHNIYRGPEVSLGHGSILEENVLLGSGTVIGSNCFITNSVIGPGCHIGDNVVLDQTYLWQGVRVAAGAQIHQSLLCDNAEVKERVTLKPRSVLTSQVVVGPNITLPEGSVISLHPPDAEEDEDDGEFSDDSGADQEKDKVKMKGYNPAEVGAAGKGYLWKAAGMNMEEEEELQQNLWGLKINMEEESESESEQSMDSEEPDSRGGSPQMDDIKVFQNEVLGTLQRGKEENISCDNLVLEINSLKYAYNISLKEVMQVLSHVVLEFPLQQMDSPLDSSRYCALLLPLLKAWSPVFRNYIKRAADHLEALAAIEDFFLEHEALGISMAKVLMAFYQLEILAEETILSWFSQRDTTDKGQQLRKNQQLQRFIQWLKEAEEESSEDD
UniProt O43768: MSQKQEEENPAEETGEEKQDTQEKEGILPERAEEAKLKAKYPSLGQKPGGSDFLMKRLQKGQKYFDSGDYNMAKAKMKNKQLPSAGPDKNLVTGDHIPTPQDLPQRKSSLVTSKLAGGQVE
UniProt P32519: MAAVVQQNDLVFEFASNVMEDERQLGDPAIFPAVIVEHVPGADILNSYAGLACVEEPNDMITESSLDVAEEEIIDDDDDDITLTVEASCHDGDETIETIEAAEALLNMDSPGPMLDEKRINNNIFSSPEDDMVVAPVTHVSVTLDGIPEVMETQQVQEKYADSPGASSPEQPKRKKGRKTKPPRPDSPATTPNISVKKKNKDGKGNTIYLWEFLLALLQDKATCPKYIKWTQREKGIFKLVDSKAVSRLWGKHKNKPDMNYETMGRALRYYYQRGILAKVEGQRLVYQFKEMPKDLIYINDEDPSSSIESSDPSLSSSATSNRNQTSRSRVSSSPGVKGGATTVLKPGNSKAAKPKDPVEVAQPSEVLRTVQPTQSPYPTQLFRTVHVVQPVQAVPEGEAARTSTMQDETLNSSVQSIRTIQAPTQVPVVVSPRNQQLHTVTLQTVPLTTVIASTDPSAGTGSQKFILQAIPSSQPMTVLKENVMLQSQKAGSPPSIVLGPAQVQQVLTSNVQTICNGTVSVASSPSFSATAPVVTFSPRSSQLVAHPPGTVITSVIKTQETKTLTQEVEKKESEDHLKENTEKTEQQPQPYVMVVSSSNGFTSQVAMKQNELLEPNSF
UniProt Q92889: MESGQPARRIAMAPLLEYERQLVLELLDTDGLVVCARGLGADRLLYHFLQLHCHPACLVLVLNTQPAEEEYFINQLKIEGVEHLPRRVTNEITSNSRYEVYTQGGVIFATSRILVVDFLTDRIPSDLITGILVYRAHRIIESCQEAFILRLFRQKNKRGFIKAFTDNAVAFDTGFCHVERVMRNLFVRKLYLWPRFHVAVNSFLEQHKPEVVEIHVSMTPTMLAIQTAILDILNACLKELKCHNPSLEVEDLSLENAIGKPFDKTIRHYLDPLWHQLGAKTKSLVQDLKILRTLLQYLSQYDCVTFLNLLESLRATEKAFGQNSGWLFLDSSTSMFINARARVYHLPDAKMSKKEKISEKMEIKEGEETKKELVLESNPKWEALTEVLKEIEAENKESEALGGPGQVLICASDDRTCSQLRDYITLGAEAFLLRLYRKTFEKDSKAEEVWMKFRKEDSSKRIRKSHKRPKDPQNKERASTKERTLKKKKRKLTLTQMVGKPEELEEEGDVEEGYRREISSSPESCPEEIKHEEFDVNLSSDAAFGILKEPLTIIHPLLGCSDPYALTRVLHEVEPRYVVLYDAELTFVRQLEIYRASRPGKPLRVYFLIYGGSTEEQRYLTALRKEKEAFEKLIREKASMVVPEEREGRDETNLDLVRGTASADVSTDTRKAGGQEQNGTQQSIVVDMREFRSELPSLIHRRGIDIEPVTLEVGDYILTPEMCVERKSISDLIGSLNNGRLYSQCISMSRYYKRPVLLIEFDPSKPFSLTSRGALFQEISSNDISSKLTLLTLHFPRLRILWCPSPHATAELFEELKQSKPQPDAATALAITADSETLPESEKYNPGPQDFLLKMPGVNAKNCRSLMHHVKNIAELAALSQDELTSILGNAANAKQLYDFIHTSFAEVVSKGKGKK
UniProt Q7L775: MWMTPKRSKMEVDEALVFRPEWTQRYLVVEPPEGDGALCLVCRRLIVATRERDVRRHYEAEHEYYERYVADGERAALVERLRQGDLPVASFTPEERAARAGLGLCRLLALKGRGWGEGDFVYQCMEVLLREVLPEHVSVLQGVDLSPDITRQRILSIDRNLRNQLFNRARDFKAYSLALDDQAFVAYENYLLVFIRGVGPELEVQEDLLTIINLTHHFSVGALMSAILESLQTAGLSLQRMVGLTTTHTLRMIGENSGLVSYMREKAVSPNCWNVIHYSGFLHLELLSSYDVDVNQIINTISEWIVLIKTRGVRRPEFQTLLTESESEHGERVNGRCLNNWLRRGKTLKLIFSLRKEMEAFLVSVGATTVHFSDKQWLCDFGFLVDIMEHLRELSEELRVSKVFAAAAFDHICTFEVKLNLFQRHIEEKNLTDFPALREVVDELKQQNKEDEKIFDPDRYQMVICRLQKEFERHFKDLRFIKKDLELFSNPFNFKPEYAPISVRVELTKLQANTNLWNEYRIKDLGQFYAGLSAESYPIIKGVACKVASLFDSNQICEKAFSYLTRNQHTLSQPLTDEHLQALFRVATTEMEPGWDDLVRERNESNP
UniProt O60841: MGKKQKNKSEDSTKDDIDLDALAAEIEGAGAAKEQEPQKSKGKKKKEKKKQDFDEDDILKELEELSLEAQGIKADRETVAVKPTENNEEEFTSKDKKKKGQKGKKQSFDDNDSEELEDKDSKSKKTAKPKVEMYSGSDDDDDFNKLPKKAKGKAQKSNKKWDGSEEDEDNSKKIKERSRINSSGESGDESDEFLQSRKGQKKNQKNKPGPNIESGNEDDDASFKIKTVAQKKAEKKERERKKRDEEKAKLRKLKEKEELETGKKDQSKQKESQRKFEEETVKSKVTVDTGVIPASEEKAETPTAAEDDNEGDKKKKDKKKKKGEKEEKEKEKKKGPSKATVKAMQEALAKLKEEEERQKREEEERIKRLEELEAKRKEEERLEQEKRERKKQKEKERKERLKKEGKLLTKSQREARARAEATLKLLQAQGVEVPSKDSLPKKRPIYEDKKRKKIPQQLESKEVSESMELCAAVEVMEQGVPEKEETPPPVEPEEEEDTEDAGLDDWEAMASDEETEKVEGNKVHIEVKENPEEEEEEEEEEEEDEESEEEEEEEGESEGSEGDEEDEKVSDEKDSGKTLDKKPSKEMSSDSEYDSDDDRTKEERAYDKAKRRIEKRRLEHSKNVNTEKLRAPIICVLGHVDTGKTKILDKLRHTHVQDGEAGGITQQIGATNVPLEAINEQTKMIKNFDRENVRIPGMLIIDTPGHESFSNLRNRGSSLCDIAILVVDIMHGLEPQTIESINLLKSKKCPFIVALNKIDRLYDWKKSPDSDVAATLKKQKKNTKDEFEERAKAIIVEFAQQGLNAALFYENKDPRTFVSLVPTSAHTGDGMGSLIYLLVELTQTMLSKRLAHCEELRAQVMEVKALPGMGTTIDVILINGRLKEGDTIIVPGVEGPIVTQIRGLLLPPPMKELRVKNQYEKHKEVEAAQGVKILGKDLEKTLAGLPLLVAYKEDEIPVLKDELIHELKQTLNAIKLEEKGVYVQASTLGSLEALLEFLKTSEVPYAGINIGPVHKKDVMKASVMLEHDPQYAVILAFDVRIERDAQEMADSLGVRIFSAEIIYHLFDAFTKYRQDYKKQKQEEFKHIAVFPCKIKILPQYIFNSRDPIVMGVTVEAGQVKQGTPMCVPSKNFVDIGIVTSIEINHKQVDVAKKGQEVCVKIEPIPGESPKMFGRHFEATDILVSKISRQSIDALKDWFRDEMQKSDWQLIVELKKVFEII
UniProt Q9NPA8: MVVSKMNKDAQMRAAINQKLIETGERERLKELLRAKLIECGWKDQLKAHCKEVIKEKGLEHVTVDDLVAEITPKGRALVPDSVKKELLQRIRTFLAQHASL
UniProt P55199: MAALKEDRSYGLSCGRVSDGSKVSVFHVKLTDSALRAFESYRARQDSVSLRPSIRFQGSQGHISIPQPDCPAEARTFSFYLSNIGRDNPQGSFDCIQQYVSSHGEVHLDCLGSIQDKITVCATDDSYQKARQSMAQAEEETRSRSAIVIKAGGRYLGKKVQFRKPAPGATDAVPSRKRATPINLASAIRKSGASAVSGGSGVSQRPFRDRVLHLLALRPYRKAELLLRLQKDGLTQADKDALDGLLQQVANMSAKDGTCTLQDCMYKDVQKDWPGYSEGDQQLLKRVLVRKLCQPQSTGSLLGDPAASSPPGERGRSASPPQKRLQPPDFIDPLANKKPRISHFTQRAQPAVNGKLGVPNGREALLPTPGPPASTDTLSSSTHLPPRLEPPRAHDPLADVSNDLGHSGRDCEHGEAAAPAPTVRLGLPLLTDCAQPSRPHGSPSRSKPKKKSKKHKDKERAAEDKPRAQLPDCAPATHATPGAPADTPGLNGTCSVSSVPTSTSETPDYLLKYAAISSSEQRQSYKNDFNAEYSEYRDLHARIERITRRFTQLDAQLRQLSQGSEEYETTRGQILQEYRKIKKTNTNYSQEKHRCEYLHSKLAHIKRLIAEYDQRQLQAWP
UniProt Q9Y6I3: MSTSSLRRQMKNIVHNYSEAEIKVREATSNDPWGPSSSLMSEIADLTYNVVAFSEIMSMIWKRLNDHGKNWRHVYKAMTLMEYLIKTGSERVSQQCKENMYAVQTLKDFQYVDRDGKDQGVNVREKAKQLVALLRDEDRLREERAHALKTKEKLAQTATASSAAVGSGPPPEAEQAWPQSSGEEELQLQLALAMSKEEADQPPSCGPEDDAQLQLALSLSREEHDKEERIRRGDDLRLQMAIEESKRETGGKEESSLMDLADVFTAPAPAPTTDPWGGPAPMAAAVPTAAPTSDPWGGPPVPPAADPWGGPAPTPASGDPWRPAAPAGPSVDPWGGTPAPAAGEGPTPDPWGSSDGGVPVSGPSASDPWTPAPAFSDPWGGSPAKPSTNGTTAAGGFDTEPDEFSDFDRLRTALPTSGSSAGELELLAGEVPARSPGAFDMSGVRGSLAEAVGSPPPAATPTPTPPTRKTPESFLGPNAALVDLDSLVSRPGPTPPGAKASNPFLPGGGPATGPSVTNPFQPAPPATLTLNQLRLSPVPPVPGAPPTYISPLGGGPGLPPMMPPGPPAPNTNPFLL
UniProt Q96AY2: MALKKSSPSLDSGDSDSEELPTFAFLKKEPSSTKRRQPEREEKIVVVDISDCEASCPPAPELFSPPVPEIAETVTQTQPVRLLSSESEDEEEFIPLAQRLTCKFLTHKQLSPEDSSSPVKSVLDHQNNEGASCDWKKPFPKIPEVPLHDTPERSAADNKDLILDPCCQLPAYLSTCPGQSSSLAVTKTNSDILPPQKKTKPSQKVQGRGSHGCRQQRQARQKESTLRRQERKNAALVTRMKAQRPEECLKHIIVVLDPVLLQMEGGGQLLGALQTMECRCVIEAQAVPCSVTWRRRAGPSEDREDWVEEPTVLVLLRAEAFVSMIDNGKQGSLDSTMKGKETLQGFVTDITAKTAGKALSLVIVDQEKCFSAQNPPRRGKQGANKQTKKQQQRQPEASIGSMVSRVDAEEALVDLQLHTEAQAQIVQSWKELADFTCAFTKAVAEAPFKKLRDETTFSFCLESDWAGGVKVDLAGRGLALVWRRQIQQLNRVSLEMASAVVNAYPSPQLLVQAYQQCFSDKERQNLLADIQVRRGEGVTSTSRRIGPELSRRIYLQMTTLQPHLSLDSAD

The list shows a part of the results.

Compound in the first assay: Cc1sc2c(c1C)C(c1ccc(Cl)cc1)=N[C@@H](CC(=O)OC(C)(C)C)c1nnc(C)n1-2
As to the kind of experiment: log2 fold change, soluble protein after heating vs DMSO (PISA); higher = thermal stabilisation; K562 lysate, 10 uM; active = over 0.2 and 3.5 SD of the protein, either way, in both replicates (recomputed). The gist of the method: (§1)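 Thermal stability, expressed as log-two fold change relative to solvent controls, is given from duplicates. Crude K562 extract in PBS pH 7.4 with 1 mM MgCl2, at 1 mg/mL protein, was treated with 10 μM compound for 30 min and heated in aliquots for 3 min across 48°C-58°C. After pooling, adjustment to 0.5% NP-40 at 4°C and centrifugation at 21,000xg for 90 min, supernatant protein was measured by TMTpro 16plex LC-MS/MS with channel sums equalised.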
For ENO1 isoform 2 (UniProt P06733), the log2 fold change is inactive: -0.062. ELK1 (UniProt P19419): the log2 fold change is inactive: 0.122. For the target EPHB4 (UniProt P54760), the log2 fold change is inactive: -0.078. As for EIF2AK4 (UniProt Q9P2K8), the log2 fold change was inactive: 0.014.

ERGIC2 (UniProt Q96RQ1): the log2 fold change was inactive: 0.233. Regarding EIF2B4 isoform 2 (UniProt Q9UI10), the log2 fold change is inactive: -0.007. Take EIF2B5 (UniProt Q13144): the log2 fold change was inactive: 0.023. Regarding EPB41, A0A2R8Y6D0, the log2 fold change was inactive: 0.048. Same read-out and setting: under ENSA isoform 3 (UniProt O43768) stands inactive: -0.008.

EIF2AK2 (UniProt P19525): the log2 fold change is inactive: 0.216. In the case of EIF5A isoform 2 (UniProt P63241), the log2 fold change is inactive: 0.01. Regarding EIF4B (UniProt P23588), the log2 fold change is inactive: -0.016. Same read-out and setting: under EMC10 (UniProt Q5UCC4) stands inactive: -0.002; under ELF1 (UniProt P32519), inactive: 0.023. For the target EIF3B isoform 2 (UniProt P55884), the log2 fold change is inactive: -0.002. ERCC4 (UniProt Q92889): the log2 fold change is inactive: -0.008.

With ENTPD5 (UniProt O75356), the log2 fold change was inactive: -0.007. The same measure, in the same setting: under EP300 (UniProt Q09472) stands inactive: 0.005. EPM2AIP1 (UniProt Q7L775): the log2 fold change is inactive: -0.016. For EIF5B (UniProt O60841), the log2 fold change is inactive: 0. Take ENO3 (UniProt P13929): the log2 fold change was inactive: 0.249. Same read-out and setting: in the case of EP400 isoform 5 (UniProt Q96L91) it was inactive: 0.06.

As for EIF3M (UniProt Q7L2H7), the log2 fold change is inactive: 0.033. For the target ENY2 (UniProt Q9NPA8), the log2 fold change is inactive: 0.117. Consider EIF4G1 (UniProt Q04637), for which the log2 fold change is inactive: 0.032. Turning to ENDOG (UniProt Q14249), the log2 fold change is inactive: -0.024. EPPK1 (UniProt P58107): the log2 fold change was inactive: 0.01. In the case of EIF3D (UniProt O15371), the log2 fold change is inactive: 0.035. As to ELL (UniProt P55199), the log2 fold change is inactive: -0.005. Regarding EPN1 (UniProt Q9Y6I3), the log2 fold change was inactive: 0. On the same count and under the same terms, under EML4 (UniProt Q9HC35) stands inactive: 0.001; under EIF4E2 (UniProt O60573), inactive: -0.069.

Compound in a further assay: c1ccc([C@@H]2C[C@H]2NC2CCNCC2)cc1
Described as above. The gist of the method: as §1
In the case of ENO1 isoform 2 (UniProt P06733), the log2 fold change is inactive: -0.143. Take ELK1 (UniProt P19419): the log2 fold change is inactive: -0.024. Regarding EPHB4 (UniProt P54760), the log2 fold change was inactive: 0.029. On to EIF2AK4 (UniProt Q9P2K8), for which the log2 fold change was inactive: -0.019. Turning to ERGIC2 (UniProt Q96RQ1), the log2 fold change was inactive: 0.069. Take EIF2B4 isoform 2 (UniProt Q9UI10): the log2 fold change is inactive: 0.042. For EIF2B5 (UniProt Q13144), the log2 fold change was inactive: 0.017. Regarding EPB41, A0A2R8Y6D0, the log2 fold change was inactive: 0.11. Consider EME1 isoform 2 (UniProt Q96AY2), for which the log2 fold change was inactive: 0.193. ENSA isoform 3 (UniProt O43768): the log2 fold change was inactive: 0.02. As to EIF2AK2 (UniProt P19525), the log2 fold change was inactive: 0.03. For the target EIF5A isoform 2 (UniProt P63241), the log2 fold change was inactive: 0.002. On to EIF4B (UniProt P23588), for which the log2 fold change is inactive: -0.038. On to EMC10 (UniProt Q5UCC4), for which the log2 fold change was inactive: -0.09. For the target ELF1 (UniProt P32519), the log2 fold change was inactive: 0.026.

EIF3B isoform 2 (UniProt P55884): the log2 fold change was inactive: 0.014.

Consider ERCC4 (UniProt Q92889), for which the log2 fold change is active: -0.305. With ENTPD5 (UniProt O75356), the log2 fold change was inactive: -0.068. The same measure, in the same setting: in the case of EP300 (UniProt Q09472) it was inactive: -0.016. On the same count and under the same terms, in the case of EPM2AIP1 (UniProt Q7L775) it was inactive: 0.04; in that of EIF5B (UniProt O60841), inactive: 0.001; in that of ENO3 (UniProt P13929), inactive: -0.117. As to EP400 isoform 5 (UniProt Q96L91), the log2 fold change was inactive: 0.016. Take EIF3M (UniProt Q7L2H7): the log2 fold change is inactive: 0.087. On the same count and under the same terms, in the case of ENY2 (UniProt Q9NPA8) it was inactive: 0.386.

Take EIF4G1 (UniProt Q04637): the log2 fold change was inactive: 0.018. Take ENDOG (UniProt Q14249): the log2 fold change is inactive: 0.038. For EPPK1 (UniProt P58107), the log2 fold change was inactive: 0.064. EIF3D (UniProt O15371): the log2 fold change is inactive: 0.037. Consider ELL (UniProt P55199), for which the log2 fold change was inactive: 0.036. Still for that read-out and setting: under EPN1 (UniProt Q9Y6I3) stands inactive: -0.015. As to EML4 (UniProt Q9HC35), the log2 fold change was inactive: -0.019.

As to EIF4E2 (UniProt O60573), the log2 fold change is inactive: 0.033.

As to ELAC1 (UniProt Q9H777), the log2 fold change is inactive: 0.192.
